Results published in article PMC3660581.
No constants are given. Whether binding was seen depends on the method and setting. Binding seen in cells or lysates may run through a third protein. Some binding calls cover weakened binding; strength is not graded here.

Experiments:
[1] = biological target: T1, apolipoprotein O-like protein (APOOL) (human (endogenous in HeLa)) (UniProt Q6UXV4); assay: co-IP; endogenous proteins; HeLa mitochondria (250 µg) solubilized with digitonin (detergent:protein 4:1) at 4°C; 1 µg antibody against APOOL or Mitofilin, or preimmune serum, protein A beads; washed with PBS, 0.01% digitonin; eluted with 0.1 M citric acid; western blot
T1 sequence: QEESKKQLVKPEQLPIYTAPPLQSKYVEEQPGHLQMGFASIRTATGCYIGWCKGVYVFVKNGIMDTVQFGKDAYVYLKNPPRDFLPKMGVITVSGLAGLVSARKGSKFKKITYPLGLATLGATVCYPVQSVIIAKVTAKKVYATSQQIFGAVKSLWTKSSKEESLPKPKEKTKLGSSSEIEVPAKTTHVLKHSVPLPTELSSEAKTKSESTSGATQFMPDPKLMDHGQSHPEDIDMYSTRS

[2] = biological target: T2, Mitofilin (human (endogenous in HeLa)) (UniProt Q16891); assay: as above
T2 sequence: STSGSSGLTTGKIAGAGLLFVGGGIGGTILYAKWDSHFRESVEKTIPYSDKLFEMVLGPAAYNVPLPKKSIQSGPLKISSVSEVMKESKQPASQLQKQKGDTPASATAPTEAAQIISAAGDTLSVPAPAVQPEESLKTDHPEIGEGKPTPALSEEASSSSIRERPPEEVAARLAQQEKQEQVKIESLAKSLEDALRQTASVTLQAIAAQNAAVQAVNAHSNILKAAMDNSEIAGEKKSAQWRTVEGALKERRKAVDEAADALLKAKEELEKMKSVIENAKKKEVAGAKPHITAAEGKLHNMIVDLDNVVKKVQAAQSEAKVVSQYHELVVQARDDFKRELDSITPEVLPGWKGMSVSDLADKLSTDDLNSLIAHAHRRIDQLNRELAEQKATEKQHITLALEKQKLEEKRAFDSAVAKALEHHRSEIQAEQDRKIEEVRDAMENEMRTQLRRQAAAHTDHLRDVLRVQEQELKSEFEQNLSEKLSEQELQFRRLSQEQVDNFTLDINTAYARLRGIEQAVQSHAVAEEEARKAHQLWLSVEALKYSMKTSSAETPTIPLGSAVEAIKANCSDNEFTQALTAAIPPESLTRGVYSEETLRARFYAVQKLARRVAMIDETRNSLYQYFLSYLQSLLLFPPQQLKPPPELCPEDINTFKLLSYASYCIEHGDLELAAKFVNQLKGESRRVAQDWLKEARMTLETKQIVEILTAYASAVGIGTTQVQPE

binding [1]: binds
binding [2]: binds
B1: sorting and assembly machinery component 50 (SAMM50) (protein, UniProt Q9Y512 1-469)
chain: MGTVHARSLEPLPSSGPDFGGLGEEAEFVEVEPEAKQEILENKDVVVQHVHFDGLGRTKDDIIICEIGDVFKAKNLIEVMRKSHEAREKLLRLGIFRQVDVLIDTCQGDDALPNGLDVTFEVTELRRLTGSYNTMVGNNEGSMVLGLKLPNLLGRAEKVTFQFSYGTKETSYGLSFFKPRPGNFERNFSVNLYKVTGQFPWSSLRETDRGMSAEYSFPIWKTSHTVKWEGVWRELGCLSRTASFAVRKESGHSLKSSLSHAMVIDSRNSSILPRRGALLKVNQELAGYTGGDVSFIKEDFELQLNKQLIFDSVFSASFWGGMLVPIGDKPSSIADRFYLGGPTSIRGFSMHSIGPQSEGDYLGGEAYWAGGLHLYTPLPFRPGQGGFGELFRTHFFLNAGNLCNLNYGEGPKAHIRKLAECIRWSYGAGIVLRLGNIARLELNYCVPMGVQTGDRICDGVQFGAGIRFL
